PubChem BioAssay AID1259308 | NCATS – 2017
In all, the deposit lists about 59,000 reagents; this is a random part of them. Of all reagents, about 1,510 (2.6%) were called active. 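Calls use total luciferase alone and ignore viability, so some active siRNAs may act by altering cell number.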 Reagents against one gene are numbered here. Further read-outs or replicates are left out here. Reagent sequences are not shown.

Test: 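Genes whose loss raises luciferase production in HEK293 cells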 (primary screen)
System: human HEK293 embryonic kidney cells stably expressing firefly luciferase (HEK-CMV-Luc2-Hygro)
Reagent: single siRNA against human genes, 0.8 pmol siRNA per well
Timing: 72 h
Read-out: 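Reporter luminescence and viable-cell signal on separate replicate plates, given as percent of non-targeting control and median/MAD z-scores, plus per-cell luciferase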
Reading the numbers: total luciferase, z-score: higher = more reporter protein produced
Rule for the call: 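An siRNA counts as active if its total luciferase robust z-score exceeds 3; genes with two or more such siRNAs out of three were retested with fresh siRNAs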
Calls: active = raised luciferase; inactive = no rise

ANKRD33 #1 — total luciferase, z-score: -3.08; Call: inactive
ANKRD33 #2 — total luciferase, z-score: -1.36; Call: inactive
ANKRD33 #3 — total luciferase, z-score: -0.364; Call: inactive
STPG4 #1 — total luciferase, z-score: -0.321; Call: inactive
STPG4 #2 — total luciferase, z-score: -0.469; Call: inactive
STPG4 #3 — total luciferase, z-score: 0.453; Call: inactive

2 of these entries, set out differently:
| target | siRNA no. | total luciferase, z-score | Call |
| --- | --- | --- | --- |
| ANKRD33 | 2 | -1.36 | inactive |
| ANKRD33 | 3 | -0.364 | inactive |

More results follow:
GPER1 #1 — total luciferase, z-score: 1.62; Call: inactive
GPER1 #2 — total luciferase, z-score: -1.03; Call: inactive
GPER1 #3 — total luciferase, z-score: -0.662; Call: inactive
C6orf62 #1 — total luciferase, z-score: 0.631; Call: inactive
C6orf62 #2 — total luciferase, z-score: -0.403; Call: inactive
C6orf62 #3 — total luciferase, z-score: -0.593; Call: inactive
